{"sequences": {"note": "The chains behind the UniProt entries cited, without tags or fusion partners. Residues count along the entry.", "UniProt Q90701, 5-433": "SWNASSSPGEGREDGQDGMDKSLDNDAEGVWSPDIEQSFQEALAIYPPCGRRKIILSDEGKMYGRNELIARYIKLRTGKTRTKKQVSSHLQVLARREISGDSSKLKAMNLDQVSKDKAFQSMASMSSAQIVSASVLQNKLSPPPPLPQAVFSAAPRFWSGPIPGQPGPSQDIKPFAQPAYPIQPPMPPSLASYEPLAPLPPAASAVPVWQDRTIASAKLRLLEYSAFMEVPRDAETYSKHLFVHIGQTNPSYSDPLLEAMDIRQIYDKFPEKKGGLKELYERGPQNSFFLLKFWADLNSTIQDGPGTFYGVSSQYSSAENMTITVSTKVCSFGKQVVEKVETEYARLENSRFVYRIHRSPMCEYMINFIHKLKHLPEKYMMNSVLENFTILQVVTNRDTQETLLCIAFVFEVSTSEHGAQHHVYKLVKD"}, "source": "patent US5776776", "target": "DTEF-1A (fusion, codons from Ser5 to C-terminus) (Gallus gallus) (UniProt Q90701)", "assay": "competition with a labelled probe", "conditions": "excess mutant competitor did not compete; mutant oligo sequence taken from Example 2 (RTEF-1 gel shift), presumed the same; protein translated in vitro; protein details: N-terminal pRSET vector fusion (Invitrogen); variant of wild-type M-CAT DNA probe/competitor", "note": "For at least one entry, the source does not settle the construct or the ends of the probe. No signal at the amounts used counts as a negative."}
{"sequence": "TCGGGTGTTGGGTACCTCTCTGC / CCGAGCAGAGAGGTACCCAACAC [mutant M-CAT competitor]", "values": [{"measurement": "binding result", "value": "no binding"}]}
